These results are taken from doi:10.1101/2025.10.29.685433.

By UniProt entry, the sequences of proteins in these tests, tags left out. Where a name states a change or a piece, a line headed by the entry shows the natural chain unless it says otherwise.
UniProt Q12522: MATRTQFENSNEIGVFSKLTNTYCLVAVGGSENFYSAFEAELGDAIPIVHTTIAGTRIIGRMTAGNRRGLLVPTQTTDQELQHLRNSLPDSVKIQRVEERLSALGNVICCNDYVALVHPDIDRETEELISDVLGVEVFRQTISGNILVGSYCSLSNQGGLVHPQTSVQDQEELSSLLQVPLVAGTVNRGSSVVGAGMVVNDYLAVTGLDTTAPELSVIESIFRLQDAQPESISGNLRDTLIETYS

Common to all, as to experiment: affinity purification with mass spectrometry
Assay [1] concerns the target T1, uL16 P-site loop mutant (uL16^mut), C-terminally Flag-tagged (yeast (S. cerevisiae)) (UniProt P41805).
T1 sequence: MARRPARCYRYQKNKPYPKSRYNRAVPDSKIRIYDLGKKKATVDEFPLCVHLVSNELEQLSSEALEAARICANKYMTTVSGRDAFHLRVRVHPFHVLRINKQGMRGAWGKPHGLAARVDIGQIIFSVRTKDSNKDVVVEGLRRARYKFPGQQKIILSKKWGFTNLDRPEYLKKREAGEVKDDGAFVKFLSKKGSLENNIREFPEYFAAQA

The target of assay [2] is T1, uL16 P-site loop mutant (uL16^mut), C-terminally Flag-tagged (yeast (S. cerevisiae)). The source holds these as a separate data set.
For assay [3] the target is unchanged. The source holds these as a separate data set.

Read-outs that look alike come from different tables or passages of the source. Results are given in words; binding and its absence hold for the method and conditions named. In cells and extracts the contact can be indirect. A yes stands for co-enrichment or nearness to the bait. Other partners may have been found. Sequences can lack the tags named with a protein.

As for Tif6-V192F (from UniProt Q12522 1-245), the binding entry in assay [1] is reported as “binds”.

B1: Reh1 (protein, UniProt Q06709 1-432)
chain: MSSTFFTCNCCVIQFKTSDLQRYHMKTEWHRYNLKRRIANLPPIGAEQFAEKLQISEKEQAENQVDEFGFPVLKPVMNQSNALPQKQKKPIKSKRGRKVGTNLLKRKDRDIAKEKQNRSVSPSGSISSQLSNLTVGTENTNTDYGEDTVSEYGFTSDSNYEYATSDEELDIADKPSDKENEKITITECIYCGKDNKEVERNVKHMFSEHGLFIPERSYLIDLNGLLEFLIKMIVIDHNCLCCNFHGSGLESIRAHMASKRHCRLPYETKEERQLFAPFYDFTYDDHSISKNLQNDRAITSKLSSVYGAKNDEEDGEVDITLVSSENDINANYTTVSIDESGLELTLPTGARLGHRAGQRYYRQNLPSQPNPNESRRTITAADRRMVSGVTEKQYKKGMKKMQQLEKNAINTQIRREIKRVNFQTHYRDELLQ
On to B1, for which the binding entry in assay [1], in assay [2] and in assay [3] was “binds” in each case.

B2: Yvh1 (protein, UniProt Q02256 1-364)
chain: MAGNANSVDEEVTRILGGIYLGGIRPIIDHRPLGAEFNITHILSVIKFQVIPEYLIRKGYTLKNIPIDDDDVTDVLQYFDETNRFIDQCLFPNEVEYSPRLVDFKKKPQRGAVFAHCQAGLSRSVTFIVAYLMYRYGLSLSMAMHAVKRKKPSVEPNENFMEQLHLFEKMGGDFVDFDNPAYKQWKLKQSIKLDPSGSELVSNSGMFKDSESSQDLDKLTEAEKSKVTAVRCKKCRTKLALSTSFIAHDPPSKESSEGHFIKRAANSHRIIDIQESQANCSHFFIEPLKWMQPELQGKQELEGKFSCPGCSSKVGGYNWKGSRCSCGKWVIPAIHLQTSKVDQFPLQSTALPNMVNFESEKVNR
On to B2, for which the binding result in assay [3] was “binds”.
